Experimental data taken from patent publication US20140154245A1 (L AND K BIOMED, published 2014).
These are yes or no findings as the source states them, for the method shown. Some results given as binding are weak or reduced against the parent protein; the word gives no strength.

T1: human EMAPII (endothelial monocyte activating polypeptide II) antigen (human) (UniProt Q12904)
T1 sequence: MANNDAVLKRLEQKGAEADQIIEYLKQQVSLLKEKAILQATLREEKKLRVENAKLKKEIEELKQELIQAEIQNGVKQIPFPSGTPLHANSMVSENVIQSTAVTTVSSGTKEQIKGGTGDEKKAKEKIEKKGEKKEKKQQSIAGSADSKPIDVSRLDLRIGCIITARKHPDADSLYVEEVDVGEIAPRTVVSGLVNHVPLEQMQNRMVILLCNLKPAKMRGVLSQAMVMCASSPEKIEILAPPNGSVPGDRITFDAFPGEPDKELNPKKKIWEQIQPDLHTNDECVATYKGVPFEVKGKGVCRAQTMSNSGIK


Tests used:
[1] = biological target: T1, human EMAPII (endothelial monocyte activating polypeptide II) antigen (human); assay: enzyme immunoassay of hybridoma culture supernatant on the antigen
[2] = biological target: T1, human EMAPII (endothelial monocyte activating polypeptide II) antigen (human); assay: ELISA, EMAPII antigen coated at 2.5 ug/ml, detected with anti-human-IgG HRP conjugate
[3] = biological target: T1, human EMAPII (endothelial monocyte activating polypeptide II) antigen (human); assay: ELISA, EMAPII antigen coated on the plate
[4] = biological target: T1, human EMAPII (endothelial monocyte activating polypeptide II) antigen (human); assay: antigen-binding ELISA screen of CHO-S supernatants, specific activity (affinity/quant) against chimeric BAP015-1

| binding [4] | Binder | also measured |
| --- | --- | --- |
| – | mouse anti-EMAPII monoclonal antibody (antibody, V domains shown, Mouse IgG1 with kappa light chain, from a hybridoma; also called murine EMAPII mAb; parental murine anti-EMAPII antibody) VH: QVQLQQSGAELARPGASVKMSCKASGYTFTSYTMHWVKQRPGQGLEWIGYINPSSGFTNYNQKFKDKATLTADKSSSTAYMQLSSLTSEDSAVYYCASRFAYWGQG VL: DIVMTQSHKFMSTSVGDRVSITCKASQDVSTAVAWYQQKPGQSPKLLIFSASYRYTGVPDRFTGSGSGTDFTFTISSVQAEDLAVYYCQQHYSTPYTFGQG | binding [1]: binds |
| – | mouse/human chimeric antibody BAP015-1 (antibody, V domains shown, VL is fused to a human kappa constant region and VH to a human IgG1 constant region (full-length IgG1, from CHO-S supernatant); Three plasmid clones of the same construct were tested; they are treated as one molecule; also called chimeric anti-EMAPII antibody; chimeric clone BAP015-1) VH: QVQLQQSGAELARPGASVKMSCKASGYTFTSYTMHWVKQRPGQGLEWIGYINPSSGFTNYNQKFKDKATLTADKSSSTAYMQLSSLTSEDSAVYYCASRFAYWGQG VL: DIVMTQSHKFMSTSVGDRVSITCKASQDVSTAVAWYQQKPGQSPKLLIFSASYRYTGVPDRFTGSGSGTDFTFTISSVQAEDLAVYYCQQHYSTPYTFGQG | binding [2]: binds; binding [3]: binds |
| binds | BAP015hum04 (antibody, human IgG1, V domains shown) VH: EVQLVQSGAEVKKPGATVKISCKVSGYTFTSYTMHWVRQAPGQGLEWMGYINPSSGFTNYNQKFKDRVTISADKSISTAYLQWSSLKASDTAMYYCASRFAYWGQG VL: AIQLTQSPSSLSASVGDRVTITCKASQDVSTAVAWYQQKPGKAPKLLIYSASYRYTGVPSRFSGSGSGTDFTFTISSLQPEDIATYYCQQHYSTPYTFGQG | – |
| binds | BAP015hum02 (antibody, human IgG1, V domains shown) VH: EVQLVQSGAEVKKPGATVKISCKVSGYTFTSYTMHWVRQAPGQGLEWMGYINPSSGFTNYNQKFKDRVTISADKSISTAYLQWSSLKASDTAMYYCASRFAYWGQG VL: AIQLTQSPSSLSASVGDRVTITCKASQDVSTAVAWYQQKPGKAPKLLIYSASYRYTGIPPRFSGSGYGTDFTLTINNIESEDAAYYFCQQHYSTPYTFGQG | – |
| binds | BAP015hum06 (antibody, human IgG1, V domains shown) VH: EVQLVQSGAEVKKPGATVKISCKVSGYTFTSYTMHWVRQAPGQGLEWMGYINPSSGFTNYNQKFKDRVTISADKSISTAYLQWSSLKASDTAMYYCASRFAYWGQG VL: EIVLTQSPDFQSVTPKEKVTITCKASQDVSTAVAWYQQKPGKAPKLLIYSASYRYTGVPSRFSGSGSGTDFTFTISSLQPEDIATYYCQQHYSTPYTFGQG | – |
| binds | BAP015hum03 (antibody, human IgG1, V domains shown) VH: EVQLVQSGAEVKKPGATVKISCKVSGYTFTSYTMHWVRQAPGQGLEWMGYINPSSGFTNYNQKFKDRVTISADKSISTAYLQWSSLKASDTAMYYCASRFAYWGQG VL: AIQLTQSPSSLSASVGDRVTITCKASQDVSTAVAWYQQKPGKAPKLLIYSASYRYTGVPSRFSGSGSGTDFTFTISRLEPEDFAVYYCQQHYSIPYTFGQG | – |
| binds | BAP015hum07 (antibody, human IgG1, V domains shown) VH: EVQLVQSGAEVKKPGATVKISCKVSGYTFTSYTMHWVRQAPGQGLEWMGYINPSSGFTNYNQKFKDRVTISADKSISTAYLQWSSLKASDTAMYYCASRFAYWGQG VL: EIVLTQSPDFQSVTPKEKVTITCKASQDVSTAVAWYLQKPGQSPQLLIYSASYRYTGVPSRFSGSGSGTDFTFTISSLQPEDIATYYCQQHYSTPYTFGQG | – |
| binds | BAP015hum01 (antibody, human IgG1, V domains shown) VH: EVQLVQSGAEVKKPGESLRISCKGSGYTFTSYTMHWIRQSPSRGLEWLGYINPSSGFTNYNQKFKDRVTITADKSTSTAYMELSSLRSEDTAVYYCASRFAYWGQG VL: AIQLTQSPSSLSASVGDRVTITCKASQDVSTAVAWYQQKPGQAPRLLIYSASYRYTGVPSRFSGSGSGTDFTFTISSLEAEDAATYYCQQHYSTPYTFGQG | – |
| binds | BAP015hum05 (antibody, human IgG1, V domains shown) VH: EVQLVQSGAEVKKPGATVKISCKVSGYTFTSYTMHWVRQAPGQGLEWMGYINPSSGFTNYNQKFKDRVTISADKSISTAYLQWSSLKASDTAMYYCASRFAYWGQG VL: DIVMTQTPLSLPVTPGEPASISCKASQDVSTAVAWYQQKPGKAPKLLIYSASYRYTGVPSRFSGSGSGTDFTFTISSLQPEDIATYYCQQHYSTPYTFGQG | – |
